# Assays:
# [1] = tested on: stDNA (DNA sodium salt from salmon testes, approximately 20 kbp); test: MIL-based dispersive droplet extraction (DDE) of stDNA; conditions: for % extraction efficiency of 20 kbp stDNA (n = 3): 4.17 nM, 2 mL
# [2] = tested on: 20 bp dsDNA; test: MIL-based DDE of synthetic duplex DNA; conditions: 1224 nM, 2 mL, pH 8, 20 μL MIL, manual agitation 30 s
# [3] = tested on: 33-mer ssDNA; test: MIL-based DDE of single-stranded oligonucleotide; conditions: 1499 nM, 2 mL, pH 8, 20 μL MIL, manual agitation 30 s
# [4] = tested on: stDNA (DNA sodium salt from salmon testes, approximately 20 kbp); test: MIL-based single droplet extraction (SDE) of stDNA; conditions: 20 μL MIL, 2 mL, pH 8, n = 3
# [5] = listed as [(C8)3BnN+][FeCl3Br−]
# [6] = listed as [(C8)3BnN+][FeCl3Br−] (14)
compound,measurement,setting,value
"CCCCCCCCCCCCCC[P+](CCCCCC)(CCCCCC)CCCCCC.[Cl][Fe-]([Cl])([Cl])[Cl] [[P6,6,6,14+][FeCl4−], trihexyl(tetradecyl)phosphonium tetrachloroferrate(III), reference compound]",decrease of extraction efficiency of stDNA in the presence of albumin,"[1]; albumin 3.4 μM, pH 8 (FIG. 8 vs FIG. 10B)",46%
benzyltrioctylammonium bromotrichloroferrate(III) [MIL 1],% extraction efficiency of 20 kbp stDNA (n = 3),"[1]; pH 8, 20 μL MIL, manual agitation 30 s, listed as [(C8)3BnN+][FeCl3Br−]",41.0%
same,% extraction efficiency of 20 kbp stDNA (n = 3),"[1]; pH 8, 20 μL MIL, manual agitation 30 s, listed as [(C8)3BnN+][FeCl3Br−] (14)",41.0 ± 0.9%
same,% extraction efficiency of 20 bp dsDNA (n = 3),[2]; [5],69.3%
same,% extraction efficiency of 20 bp dsDNA (n = 3),[2]; [6],69.3 ± 4.4%
same,% extraction efficiency of 33-mer ssDNA (n = 3),[3]; [5],57.6%
same,% extraction efficiency of 33-mer ssDNA (n = 3),[3]; [6],57.6 ± 5.0%
CCCCCCCCCCCCCCCCn1c[n+](CCCCCCCCCCCC[n+]2cn(CCCCCCCCCCCCCCCC)c3ccccc32)c2ccccc21.O=S(=O)([N-]S(=O)(=O)C(F)(F)F)C(F)(F)F.[Cl][Fe-]([Cl])([Cl])[Br] [MIL 6],% extraction efficiency,[4]; 10 min,5.5%
same,% extraction efficiency,[4]; 20 min,33.3%
same,% extraction efficiency,[4]; 30 min,40.5%
same,% extraction efficiency,[4]; 60 min,60.3%
same,% extraction efficiency,[4]; 90 min,61.6%
same,% extraction efficiency,[4]; 120 min,63.1%
same,% extraction efficiency of 20 kbp stDNA (n = 3),"[1]; pH 8, 20 μL MIL, manual agitation 30 s",76.8 ± 2.6%
same,% extraction efficiency,"[1]; DDE, manual agitation 30 s, applied magnetic field 5 s, 20 μL MIL, pH 8, n = 3, listed as [(C16BnIM)2C12^2+][NTf2−, FeCl3Br−]",greater than 76%
same,% extraction efficiency,"[1]; DDE, manual agitation 30 s, applied magnetic field 5 s; 20 μL MIL; pH 8; n = 3; listed as [C16BnIM)2C12^2+][NTf2−, FeCl3Br−]",76.8%
same,% extraction efficiency,"[1]; DDE, manual agitation 30 s, applied magnetic field 30 s, 20 μL MIL, pH 8, n = 3",75.6%
same,% extraction efficiency,"[1]; DDE, manual agitation 30 s, applied magnetic field 60 s, 20 μL MIL, pH 8, n = 3",79.3%
same,% extraction efficiency,"[1]; DDE, manual agitation 30 s, applied magnetic field 120 s, 20 μL MIL, pH 8, n = 3",76.5%
same,% extraction efficiency,"[1]; DDE, manual agitation 30 s, applied magnetic field 300 s, 20 μL MIL, pH 8, n = 3",77.0%
same,% extraction efficiency of 20 bp dsDNA (n = 3),[2],64.0 ± 1.1%
same,% extraction efficiency of 33-mer ssDNA (n = 3),[3],67.7 ± 3.0%

# From patent publication US10280416B1, “Magnetic ionic liquids, methods of making and uses thereof as solvents in the extraction and preservation of nucleic acids” (The University of Toledo, priority 2015, dated 2019)
